Measurements reported in publication PMC12514306.
No constants are given. Whether binding was seen depends on the method and setting. In cells and extracts the contact can be indirect. Some entries that bind do so weakly or less than the wild type.

The chains behind the UniProt entries cited, without tags or fusion partners. Where a name states a change or a piece, a line headed by the entry shows the natural chain unless it says otherwise. A line that says so, or that is headed by a name, gives the form on record, which may keep a tag or linker.
UniProt Q01105: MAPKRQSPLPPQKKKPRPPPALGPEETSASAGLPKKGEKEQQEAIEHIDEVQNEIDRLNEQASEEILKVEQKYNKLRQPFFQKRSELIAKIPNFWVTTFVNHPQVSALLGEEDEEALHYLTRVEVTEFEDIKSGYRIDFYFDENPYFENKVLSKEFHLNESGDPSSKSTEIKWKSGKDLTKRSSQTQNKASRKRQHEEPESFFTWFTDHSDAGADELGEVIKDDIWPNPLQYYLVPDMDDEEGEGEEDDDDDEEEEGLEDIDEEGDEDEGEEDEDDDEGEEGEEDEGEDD
FLAG-SETBP1 p.(Glu858Lys) (Q9Y6X0-1, form named): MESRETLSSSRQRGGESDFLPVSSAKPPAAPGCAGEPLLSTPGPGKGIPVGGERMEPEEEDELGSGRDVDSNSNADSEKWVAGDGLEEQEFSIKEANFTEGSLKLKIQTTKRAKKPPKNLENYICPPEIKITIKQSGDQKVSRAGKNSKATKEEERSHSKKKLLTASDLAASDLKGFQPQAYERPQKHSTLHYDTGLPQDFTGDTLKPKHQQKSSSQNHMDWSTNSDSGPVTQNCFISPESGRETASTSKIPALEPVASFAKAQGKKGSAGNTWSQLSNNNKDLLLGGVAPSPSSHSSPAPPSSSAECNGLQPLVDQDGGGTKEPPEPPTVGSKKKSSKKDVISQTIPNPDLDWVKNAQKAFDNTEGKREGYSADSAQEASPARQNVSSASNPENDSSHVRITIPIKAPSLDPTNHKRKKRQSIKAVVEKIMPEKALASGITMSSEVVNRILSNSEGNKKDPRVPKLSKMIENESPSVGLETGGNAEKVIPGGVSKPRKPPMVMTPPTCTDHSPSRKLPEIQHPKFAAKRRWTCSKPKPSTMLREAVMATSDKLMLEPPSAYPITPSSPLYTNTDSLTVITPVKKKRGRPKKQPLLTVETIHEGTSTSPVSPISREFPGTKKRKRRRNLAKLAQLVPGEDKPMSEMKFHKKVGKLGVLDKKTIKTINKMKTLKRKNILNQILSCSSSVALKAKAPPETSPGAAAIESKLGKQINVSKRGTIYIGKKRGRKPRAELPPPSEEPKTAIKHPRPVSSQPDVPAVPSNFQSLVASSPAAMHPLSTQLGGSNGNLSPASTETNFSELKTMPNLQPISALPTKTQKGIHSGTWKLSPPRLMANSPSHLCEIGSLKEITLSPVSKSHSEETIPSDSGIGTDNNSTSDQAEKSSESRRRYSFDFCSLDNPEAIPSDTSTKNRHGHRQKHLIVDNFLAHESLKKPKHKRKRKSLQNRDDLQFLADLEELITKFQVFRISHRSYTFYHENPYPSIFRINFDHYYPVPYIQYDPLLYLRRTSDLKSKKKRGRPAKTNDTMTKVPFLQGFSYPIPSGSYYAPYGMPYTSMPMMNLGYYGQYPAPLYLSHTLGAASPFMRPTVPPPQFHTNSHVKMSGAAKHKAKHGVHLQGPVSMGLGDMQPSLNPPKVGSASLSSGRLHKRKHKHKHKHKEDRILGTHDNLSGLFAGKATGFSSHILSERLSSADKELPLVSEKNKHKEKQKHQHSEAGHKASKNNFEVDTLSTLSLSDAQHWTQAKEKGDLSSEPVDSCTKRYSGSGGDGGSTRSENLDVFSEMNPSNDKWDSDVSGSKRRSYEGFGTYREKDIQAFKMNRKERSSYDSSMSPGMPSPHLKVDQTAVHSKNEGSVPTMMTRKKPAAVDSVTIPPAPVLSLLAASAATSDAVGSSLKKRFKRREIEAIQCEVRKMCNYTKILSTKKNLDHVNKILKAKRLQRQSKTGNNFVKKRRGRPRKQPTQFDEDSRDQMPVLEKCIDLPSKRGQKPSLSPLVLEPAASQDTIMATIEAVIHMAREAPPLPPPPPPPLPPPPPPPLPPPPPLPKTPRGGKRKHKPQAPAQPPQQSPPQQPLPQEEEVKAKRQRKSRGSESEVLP
FLAG-SETBP1 p.(Leu957Pro) (Q9Y6X0-1, form named): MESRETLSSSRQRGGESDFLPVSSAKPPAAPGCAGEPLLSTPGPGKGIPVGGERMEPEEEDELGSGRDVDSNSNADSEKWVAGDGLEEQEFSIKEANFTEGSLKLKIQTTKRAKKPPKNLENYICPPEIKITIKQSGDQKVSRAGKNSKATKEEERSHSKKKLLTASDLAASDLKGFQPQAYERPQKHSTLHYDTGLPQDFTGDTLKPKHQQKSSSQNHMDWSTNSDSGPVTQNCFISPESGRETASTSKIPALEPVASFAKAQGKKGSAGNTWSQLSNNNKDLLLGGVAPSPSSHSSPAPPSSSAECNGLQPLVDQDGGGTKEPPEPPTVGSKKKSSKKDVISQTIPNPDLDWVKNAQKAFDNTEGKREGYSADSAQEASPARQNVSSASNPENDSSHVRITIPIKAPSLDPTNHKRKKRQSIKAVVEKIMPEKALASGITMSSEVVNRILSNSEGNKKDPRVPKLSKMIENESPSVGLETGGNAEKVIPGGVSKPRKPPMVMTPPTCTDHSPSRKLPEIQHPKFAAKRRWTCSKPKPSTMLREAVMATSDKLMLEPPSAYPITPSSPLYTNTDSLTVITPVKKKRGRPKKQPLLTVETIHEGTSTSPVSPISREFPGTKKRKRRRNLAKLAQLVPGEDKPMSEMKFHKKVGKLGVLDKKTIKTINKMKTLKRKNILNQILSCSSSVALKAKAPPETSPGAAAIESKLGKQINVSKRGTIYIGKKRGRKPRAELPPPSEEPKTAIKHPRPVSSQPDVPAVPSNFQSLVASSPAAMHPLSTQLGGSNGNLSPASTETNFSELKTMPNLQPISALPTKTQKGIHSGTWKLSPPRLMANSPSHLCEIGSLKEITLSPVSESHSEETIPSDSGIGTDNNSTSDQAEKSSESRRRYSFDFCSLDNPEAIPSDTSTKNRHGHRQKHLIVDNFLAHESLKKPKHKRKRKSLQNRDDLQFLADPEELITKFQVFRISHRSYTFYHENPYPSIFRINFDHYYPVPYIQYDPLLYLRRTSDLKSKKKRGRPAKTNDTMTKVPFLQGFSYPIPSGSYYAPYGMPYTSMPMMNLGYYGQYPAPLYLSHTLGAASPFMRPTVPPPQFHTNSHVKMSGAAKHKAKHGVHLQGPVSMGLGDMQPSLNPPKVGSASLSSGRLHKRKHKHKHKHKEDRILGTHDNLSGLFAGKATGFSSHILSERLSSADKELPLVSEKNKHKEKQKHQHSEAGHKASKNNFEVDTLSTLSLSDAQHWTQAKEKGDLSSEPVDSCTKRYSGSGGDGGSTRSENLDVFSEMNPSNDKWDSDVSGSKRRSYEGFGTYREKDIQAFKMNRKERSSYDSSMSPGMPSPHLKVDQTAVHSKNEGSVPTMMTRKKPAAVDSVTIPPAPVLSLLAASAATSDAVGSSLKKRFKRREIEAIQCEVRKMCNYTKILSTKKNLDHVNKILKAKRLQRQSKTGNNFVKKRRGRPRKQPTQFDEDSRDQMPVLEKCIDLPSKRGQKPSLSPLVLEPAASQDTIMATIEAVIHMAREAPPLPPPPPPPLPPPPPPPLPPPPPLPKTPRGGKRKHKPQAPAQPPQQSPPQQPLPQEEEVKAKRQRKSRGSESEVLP
FLAG-SETBP1 p.(Thr962del) (Q9Y6X0-1, form named): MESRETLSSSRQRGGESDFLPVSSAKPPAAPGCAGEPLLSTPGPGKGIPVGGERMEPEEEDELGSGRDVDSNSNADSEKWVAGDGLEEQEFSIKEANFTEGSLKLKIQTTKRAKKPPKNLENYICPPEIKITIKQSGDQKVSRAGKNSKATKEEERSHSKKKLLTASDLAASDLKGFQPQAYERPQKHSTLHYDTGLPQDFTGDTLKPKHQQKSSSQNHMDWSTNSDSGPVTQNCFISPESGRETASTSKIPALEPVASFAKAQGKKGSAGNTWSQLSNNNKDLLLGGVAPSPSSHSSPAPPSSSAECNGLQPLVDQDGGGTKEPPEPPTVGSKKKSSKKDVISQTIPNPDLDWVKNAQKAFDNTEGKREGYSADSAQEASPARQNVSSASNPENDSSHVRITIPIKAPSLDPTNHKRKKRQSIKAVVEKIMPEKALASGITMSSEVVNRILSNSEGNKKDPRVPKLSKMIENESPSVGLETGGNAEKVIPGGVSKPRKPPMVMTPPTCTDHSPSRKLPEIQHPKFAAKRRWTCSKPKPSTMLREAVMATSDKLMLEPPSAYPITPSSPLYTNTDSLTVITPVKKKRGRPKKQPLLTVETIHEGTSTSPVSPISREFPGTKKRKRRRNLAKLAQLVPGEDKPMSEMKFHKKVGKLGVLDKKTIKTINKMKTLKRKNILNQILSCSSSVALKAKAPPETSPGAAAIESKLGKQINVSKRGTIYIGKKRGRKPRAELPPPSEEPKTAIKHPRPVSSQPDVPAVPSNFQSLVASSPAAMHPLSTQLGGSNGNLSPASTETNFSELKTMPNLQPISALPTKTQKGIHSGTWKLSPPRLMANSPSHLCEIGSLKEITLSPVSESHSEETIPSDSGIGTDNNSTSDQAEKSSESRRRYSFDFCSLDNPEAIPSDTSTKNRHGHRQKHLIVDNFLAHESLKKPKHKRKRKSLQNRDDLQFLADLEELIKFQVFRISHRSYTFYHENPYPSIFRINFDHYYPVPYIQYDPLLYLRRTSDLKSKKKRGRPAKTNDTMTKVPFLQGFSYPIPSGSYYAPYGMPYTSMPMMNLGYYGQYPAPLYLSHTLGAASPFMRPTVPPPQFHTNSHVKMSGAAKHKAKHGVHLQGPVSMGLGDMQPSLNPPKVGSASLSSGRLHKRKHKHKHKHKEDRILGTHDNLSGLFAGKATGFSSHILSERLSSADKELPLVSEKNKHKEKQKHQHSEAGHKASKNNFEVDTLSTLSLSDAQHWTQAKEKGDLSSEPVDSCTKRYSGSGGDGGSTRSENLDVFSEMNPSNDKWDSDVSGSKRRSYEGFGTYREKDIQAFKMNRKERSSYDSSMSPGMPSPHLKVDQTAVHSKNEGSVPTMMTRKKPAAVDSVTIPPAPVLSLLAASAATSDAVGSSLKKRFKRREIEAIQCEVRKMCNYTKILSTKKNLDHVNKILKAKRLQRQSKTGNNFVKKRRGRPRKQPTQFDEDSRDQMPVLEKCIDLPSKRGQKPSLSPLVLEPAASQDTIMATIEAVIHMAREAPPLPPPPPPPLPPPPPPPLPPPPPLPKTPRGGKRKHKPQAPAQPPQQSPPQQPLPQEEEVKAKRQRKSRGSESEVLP

Target: GFP-SET (UniProt Q01105)
Test: co-IP; HEK293T/17 cells co-transfected with GFP-SET and FLAG-SETBP1 (wild type or variants); lysed 48 h after transfection in Pierce IP Lysis Buffer; 400 µg protein immunoprecipitated with FLAG-agarose beads or GFP-Trap overnight at 4 °C; beads washed three times with PBS; immunoblot

binding, binds:
FLAG-SETBP1 p.(Glu858Lys) (from UniProt Q9Y6X0-1 1-1596)
FLAG-SETBP1 p.(Leu957Pro) (from UniProt Q9Y6X0-1 1-1596)
FLAG-SETBP1 p.(Thr962del) (from UniProt Q9Y6X0-1 1-1596)
FLAG-SETBP1 wild type (full-length SETBP1 fused to a C-terminal Myc-DDK tag, pCMV-Entry-SETBP1) (from UniProt Q9Y6X0-1 1-1596)
